{
  "sequences": {"note": "By UniProt entry, the sequences of proteins in these tests, tags left out.", "UniProt Q06609, whole entry": "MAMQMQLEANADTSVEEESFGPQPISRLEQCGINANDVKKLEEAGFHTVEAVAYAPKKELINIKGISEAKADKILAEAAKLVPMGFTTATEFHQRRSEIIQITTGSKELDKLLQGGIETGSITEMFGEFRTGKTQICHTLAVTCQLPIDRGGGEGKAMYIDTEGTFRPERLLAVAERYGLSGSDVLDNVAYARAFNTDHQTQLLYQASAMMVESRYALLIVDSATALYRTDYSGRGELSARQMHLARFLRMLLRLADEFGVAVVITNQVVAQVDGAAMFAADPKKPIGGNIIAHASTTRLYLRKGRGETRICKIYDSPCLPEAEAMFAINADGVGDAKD"},
  "source": "paper PMC10192527",
  "molecular_target": "RAD51 (Homo sapiens) (UniProt Q06609)",
  "assay": "cryo-EM structure (3.6 A)",
  "details": "ADP, Ca2+, no DNA density in any 3D class, authors allow weak or heterogeneous association; recombinant protein",
  "note": "The exact form of at least one protein or probe is not confirmed. Negatives hold for the conditions tested.",
  "data": [
    {"sequence": "ATGGTGTGTGTAGGTTAATGTGAGGAGGAGAGGTGAAGAAGGAGGAGAGAAGAAGGAGGC (double strand) [x60:cx60 dsDNA]", "values": [
      {"measurement": "binding result", "value": "no binding"}
    ]}
  ]
}
